# PubChem BioAssay AID602196 – INSERM, 2012
# Screen: 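Knock-downs that protect lung cancer cells from cisplatin or sensitise them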
# System: human A549 lung cancer cells
# Knock-down reagent: siRNA pair against human genes
# Time to read-out: 48 h transfection before cisplatin; time from cisplatin to read-out not stated
# Challenge: cisplatin at a dose killing half of control-siRNA cells; exact dose and duration not given
# Measured: 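Shift in cisplatin death relative to control siRNA, from -50 (all cells die) to +50 (no cells die); siRNAs harmful on their own scored 0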
# Scale: two-siRNA summed score (-2 to +2): higher = both siRNAs protect from cisplatin killing; -2 means both sensitise
# Rule for the call: 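siRNAs harmful alone (LDH or WST-1) get 0; others get +1 for less and -1 for more cisplatin killing; genes are active when the two siRNAs give the same sign, summing to ±2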
# Calls: active = both siRNAs shift cisplatin killing the same way; inactive = no consistent shift, or siRNA harmful alone
# Here is a random part of about 23,000 reagents tested. In the full data, 455 (2%) got an active call. 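Active includes both protection and sensitisation; some change values fall well beyond the stated -50 to +50 range.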 Not all columns of the deposit are shown. No sequences are given here. Not given: the amount of reagent.
gene symbol,two-siRNA summed score (-2 to +2),call
FLJ10157,0,inactive
TNFRSF1B (GeneID 7133),-1,inactive
RPA1 (GeneID 6117),-1,inactive
AADACL2 (GeneID 344752),1,inactive
ENAH (GeneID 55740),1,inactive
ADH1C (GeneID 126),-1,inactive
TMSB10 (GeneID 9168),0,inactive
LRRC74A (GeneID 145497),0,inactive
LOC134121,0,inactive
SYT8 (GeneID 90019),0,inactive
KCTD14 (GeneID 65987),0,inactive
TEF (GeneID 7008),0,inactive
DBH (GeneID 1621),0,inactive
CTNNBIP1 (GeneID 56998),0,inactive
RGS8 (GeneID 85397),0,inactive
TP53I11 (GeneID 9537),0,inactive
UBE2L6 (GeneID 9246),-1,inactive
WFDC13 (GeneID 164237),0,inactive
LOC343474,0,inactive
ADRA2C (GeneID 152),0,inactive
NDFIP2 (GeneID 54602),0,inactive
LOC388460,0,inactive
UPF1 (GeneID 5976),0,inactive
NR4A3 (GeneID 8013),0,inactive
SALL3 (GeneID 27164),0,inactive
TCL6 (GeneID 27004),0,inactive
BGN (GeneID 633),1,inactive
TGOLN2 (GeneID 10618),0,inactive
LOC442648,1,inactive
INTU (GeneID 27152),0,inactive
GPN1 (GeneID 11321),1,inactive
VSIG10 (GeneID 54621),0,inactive
ZNF271P (GeneID 10778),1,inactive
LOC346305,0,inactive
LOC389153,0,inactive
SLC38A3 (GeneID 10991),0,inactive
ACOT4 (GeneID 122970),0,inactive
VIPAS39 (GeneID 63894),0,inactive
ELOVL1 (GeneID 64834),0,inactive
MRPS10 (GeneID 55173),0,inactive
LOC126537,1,inactive
MT3 (GeneID 4504),0,inactive

Reformatted: entries from further up
TMSB10 (GeneID 9168)
- two-siRNA summed score (-2 to +2): 0
- call: inactive

LRRC74A (GeneID 145497)
- two-siRNA summed score (-2 to +2): 0
- call: inactive

LOC134121
- two-siRNA summed score (-2 to +2): 0
- call: inactive

SYT8 (GeneID 90019)
- two-siRNA summed score (-2 to +2): 0
- call: inactive

KCTD14 (GeneID 65987)
- two-siRNA summed score (-2 to +2): 0
- call: inactive

TEF (GeneID 7008)
- two-siRNA summed score (-2 to +2): 0
- call: inactive

DBH (GeneID 1621)
- two-siRNA summed score (-2 to +2): 0
- call: inactive

CTNNBIP1 (GeneID 56998)
- two-siRNA summed score (-2 to +2): 0
- call: inactive

RGS8 (GeneID 85397)
- two-siRNA summed score (-2 to +2): 0
- call: inactive

TP53I11 (GeneID 9537)
- two-siRNA summed score (-2 to +2): 0
- call: inactive

UBE2L6 (GeneID 9246)
- two-siRNA summed score (-2 to +2): -1
- call: inactive

The list goes on.
gene symbol,two-siRNA summed score (-2 to +2),call
LIMA1 (GeneID 51474),0,inactive
OR10H3 (GeneID 26532),-1,inactive
UIMC1 (GeneID 51720),0,inactive
LOC285721,1,inactive
GRB14 (GeneID 2888),0,inactive
CFI (GeneID 3426),-1,inactive
CALY (GeneID 50632),-1,inactive
NFASC (GeneID 23114),0,inactive
RETREG3 (GeneID 162427),0,inactive
ZNF671 (GeneID 79891),0,inactive
SHFL (GeneID 55337),0,inactive
LOC389240,0,inactive
EVA1A (GeneID 84141),1,inactive
HCST (GeneID 10870),0,inactive
LOC441351,1,inactive
LOC342426,0,inactive
CDC42EP1 (GeneID 11135),0,inactive
KRT73 (GeneID 319101),0,inactive
LIPH (GeneID 200879),-1,inactive
MTHFD1 (GeneID 4522),-1,inactive
CYP51A1 (GeneID 1595),0,inactive
HTRA4 (GeneID 203100),1,inactive
CCDC93 (GeneID 54520),0,inactive
LBX2 (GeneID 85474),0,inactive
BLOC1S6 (GeneID 26258),0,inactive
LINC00324 (GeneID 284029),1,inactive
AFG2B (GeneID 79029),0,inactive
CHD9 (GeneID 80205),0,inactive
S100P (GeneID 6286),-1,inactive
CD53 (GeneID 963),0,inactive
LOC440710,0,inactive
